Reference: article PMC11705725
These are yes or no findings as the source states them, for the method shown. For some assays here: In cells and extracts the contact can be indirect. Some entries that bind do so weakly or less than the wild type.

Columns and labels:
[1] = molecular target: FLAG-tagged wild type (WT) WWP1 (WW domain containing E3 ubiquitin protein ligase 1) (human) (UniProt Q9H0M0); assay: co-IP; HEK293T cells transfected with Flag-WWP1 or empty vector; lysates in Triton-NaCl extraction buffer (250 mM NaCl, 0.5% Triton-X-100, pH 7.5) precipitated overnight with anti-FLAG M2 affinity resin; blot with anti-TXNIP and anti-Flag
[2] = molecular target: Recombinant human WWP1 protein (human) (UniProt Q9H0M0); assay: pull-down; recombinant WWP1 (300 ng) and recombinant TXNIP (300 ng) incubated overnight at 4 °C in 50 mM Tris-HCl pH 7.5, 150 mM NaCl, 0.1% NP-40, 1 mM EDTA; WWP1 precipitated with anti-WWP1 antibody on protein A beads; blot with anti-TXNIP; isotypic IgG as negative control; both purified

Row | Binder | binding [1] | binding [2]
1 | Thioredoxin-interacting protein (TXNIP), endogenous in HEK293T cells (protein, UniProt Q9H3M7-1 1-391) MVMFKKIKSFEVVFNDPEKVYGSGEKVAGRVIVEVCEVTRVKAVRILACGVAKVLWMQGSQQCKQTSEYLRYEDTLLLEDQPTGENEMVIMRPGNKYEYKFGFELPQGPLGTSFKGKYGCVDYWVKAFLDRPSQPTQETKKNFEVVDLVDVNTPDLMAPVSAKKEKKVSCMFIPDGRVSVSARIDRKGFCEGDEISIHADFENTCSRIVVPKAAIVARHTYLANGQTKVLTQKLSSVRGNHIISGTCASWRGKSLRVQKIRPSILGCNILRVEYSLLIYVSVPGSKKVILDLPLVIGSRSGLSSRTSSMASRTSSEMSWVDLNIPDTPEAPPCYMDVIPEDHRLESPTTPLLDDMDGSQDSPIFMYAPEFKFMPPPTYTEVDPCILNNNVQ | binds | –
2 | Recombinant TXNIP protein (protein, UniProt Q9H3M7 1-391) MVMFKKIKSFEVVFNDPEKVYGSGEKVAGRVIVEVCEVTRVKAVRILACGVAKVLWMQGSQQCKQTSEYLRYEDTLLLEDQPTGENEMVIMRPGNKYEYKFGFELPQGPLGTSFKGKYGCVDYWVKAFLDRPSQPTQETKKNFEVVDLVDVNTPDLMAPVSAKKEKKVSCMFIPDGRVSVSARIDRKGFCEGDEISIHADFENTCSRIVVPKAAIVARHTYLANGQTKVLTQKLSSVRGNHIISGTCASWRGKSLRVQKIRPSILGCNILRVEYSLLIYVSVPGSKKVILDLPLVIGSRSGLSSRTSSMASRTSSEMSWVDLNIPDTPEAPPCYMDVIPEDHRLESPTTPLLDDMDGSQDSPIFMYAPEFKFMPPPTYTEVDPCILNNNVQ | – | binds
